Experimental data from PMC9328565.
These are yes or no findings as the source states them, for the method shown. Binding seen in cells or lysates may run through a third protein.

Biological target: Thioredoxin (control) [thioredoxin: P0AA25]
Experiment: pull-down; thioredoxin-SGTA fusion proteins or thioredoxin covalently coupled to UltraLink Biosupport beads, incubated with rabbit reticulocyte lysate for 16 hours at 4°C; washed in 40mM HEPES-KOH pH 7.5, 40mM potassium acetate, 5mM MgCl2; Western blot; only the target purified

- binding: no binding
B1: UBL4A (ubiquitin-like protein 4A) of rabbit reticulocyte lysate (protein, UniProt B7NZQ9 1-157)
chain: MQLTVKALQGRECNLQVPEDEQVSTLKQLVSEKLNVPVRQQRLLFKGKALADGKRLSDYSIGPNSKLNLVVKPLEKVLLAEGTARRLADSPPPPVWHLISKVLARHFSAADASRVLEQLQRDYERSLSRLTLDDIERLASRFLHPEGTEAMEKGLSK
